# Reference: publication PMC11867009 (2025)
# Experiment: general procedure: Fmoc solid-phase peptide synthesis; rink amide resin LS (0.5 mmol/g, 100–200 mesh); DIC / oxyma pure
# Conditions: whole synthesis, analytical reverse-phase HPLC, XBridge C18, UV detection, hydrocarbon staple, sequence written open
substance,measurement,value
Fmoc-Ahx-PESKAIKA(pentenyl)LLKA(pentenyl)VSKERSKRSP-NH2,final HPLC purity,≥ 98%
